Results are given in words; binding and its absence hold for the method and conditions named. Some results given as binding are weak or reduced against the parent protein; the word gives no strength.
What was measured:
[1] = target: cynomolgus monkey ST2 antigen (Cyno-ST2-his, Sino biological, 90915-C08H) (cynomolgus monkey); assay: ELISA
[2] = target: cynomolgus monkey ST2 antigen (Cyno-ST2-his, Sino biological, 90915-C08H) (cynomolgus monkey); assay: ELISA, plate coated with Cyno-ST2-his, HRP secondary antibody, OD450

Binder	binding [1]	binding [2]
Chimeric 26A1 (antibody, human IgG2, kappa, V domains shown) VH: QVQLQQSGAELVRPGASVTLSCKASDYIFTDSEIHWVKQTLVHGLEWIGAIDPETGDTAYNQKFKGKATLTADKSSSTAYMELSSLTSEGSAVYYCSGSTTDCYFAYWGQGTTLTVSS VL: DIVMTQAAFSNPVTLGTSASISCRSSKSLLHSNGIIYLYWYLQKPGQSPQLLIYQMSNLASGVPDRFSSSGSGTDFTLRISRVEAEDVGVYYCAQNLELPFTFGSGTKLEIKR	binds	binds
Chimeric 31C8 (antibody, human IgG2, kappa, V domains shown) VH: QVQLQQSGPELVRPGASVTLSCKASGYIFIDSEMHWVKQTPVHGLEWIGAIDPETGDTVYNQKFKGKATLTADKSSSTASMELSSLTSEDSAVYYCTGSTTDYYFAYWGQGTTLTVSS VL: DIVMTQAAFSNPVTLGTSASISCRSSKSLLHSNGIIYLYWYLQKPGQSPQLLIYQMSNLASGVPDRFSSSGSGTDFTLRISRVEAEDVGVYYCAQNLELPFTFGSGTKLEIKR	binds	binds
Chimeric 3C6 (antibody, human IgG2, kappa, V domains shown) VH: QVQLQQSGAEVVRPGASVTLSCKASDYTITDYEMHWVKQTPVHGLEWIGAIDPETGDTAYSQNFKGKATLTADESSSTAYMELSSLTSEDSAVYYCSRSATDYYFASWGQGTTLTVSS VL: DIVMTQAAISNPVTLGTSASMSCRSSKSLLHSNGITYLYWYLQKPGHSPQLLIYQMSNLASGVPDRFSSSGSGTDFTLKISRVEAEDVGVYYCAQNLELPFTFGSGTKLEIKR	binds	binds
Chimeric 7D1 (antibody, human IgG2, kappa, V domains shown) VH: QVQLQQSGAELVRPGASVTLSCKASGYTFTDYEMHWVKQTPVHGLDWIGTIDPETGDTAYNQKFKGRATLTADKSSSTAYMELSSLTSEDSAVYYCTRYSYTNSPYGMDYWGQGTSVTVSS VL: DVVMTQTPKFLLVSAGDRVTITCKASQSVSNDVAWYQQKPGQSPKLLIYYASNRYTGVPDRFTGSGYGTDFTFTINTVQAEDLAVYFCQQDYSSPYTFGGGTKLEIKR	binds	binds
Humanized 31C8-1.1 (antibody, human IgG2, kappa, V domains shown) VH: EVQLVQSGAEVKKPGATVKISCKASGYIFIDSEMHWVQQAPGKGLEWMGAIDPETGDTVYAEKFQGRVTITADKSSSTAYMELSSLRSEDTAVYYCTGSTTDYYFAYWGQGTLVTVSS VL: DIQMTQSPSSLSASVGDRVTITCRSSKSLLHSNGIIYLYWYQQKPGKAPKLLIYQLSNLASGVPSRFSSSGSGTDFTLTISSLQPEDFATYYCAQNLELPFTFGQGTKVEIKR	binds	binds
Humanized 31C8-1.2 (antibody, human IgG2, kappa, V domains shown) VH: QVQLVQSGAKVKKPGATVKISCKASGYIFIDSEMHWVQQAPGKGLEWMGAIDPETGDTVYAKKFKGRVTITADKSSSTAYMELSSLRSEDTAVYYCTGSTTDYYFAYWGQGTLVTVSS VL: DIQMTQSPSSLSASVGDRVTITCRSSKSLLHSNGIIYLYWYQQKPGKAPKLLIYQLSNLASGVPSRFSSSGSGTDFTLTISSLQPEDFATYYCAQNLELPFTFGQGTKVEIKR	binds	binds
GSK3772847 (antibody STLM208 in CN104411333, prepared in-house) (antibody, human IgG2, kappa, V domains shown) VH: EVQLLESGGGLVQPGGSLRLSCAASGFTFSIYDMIWVRQAPGKGLEWVSSIRGEGGGTYYADSVKGRFTISRDNSKNTLYLQMNSLRAEDTAVYYCARDPWSTEGSFFVLDYWGQGTLVTVSS VL: EIVLTQSPATLSLSPGERATLSCRASQSVDDDLAWYQQKPGQAPRLLIYDASNRATGIPARFSGSGSGTDFTLTISSLEPEDFAVYYCQQYITAPLTFGQGTKVEIKR	binds	binds
Chimeric 17E2 (antibody, human IgG2, kappa, V domains shown) VH: QVQLQQSGAELVRPGASVTLSCKASGYTFTDYEMHWVKQTPVLGLEWIGAIDPETGDTAYNQKFKGKATLTADKSSSTAYMELSSLASEDSAVYYCIRVDSNYDYFDYWGQDTTLTVSS VL: DIVLTQSPPILSASPGEKVTMTCRASSSVSYMHWYQQKPGSSPKPWIYDTSNLASGVPARFSGSGSGTSYSLTISRVEAEDAATYYCQQWSSNPLTFGAGTKLELKR	binds	binds
Chimeric 8F4 (antibody, human IgG2, kappa, V domains shown) VH: QVQLQQSGAELVRPGASVTLSCKASGHIFTDYEMQWVKQTPVHGLEWIGAFDPETGDTAYNQKFKGKATLTADKSSSTAYMELSSLTSEDSAVYYCSGSTTDYYFAYWGQGTSLTVSS VL: DVVMTQTAFSNPVTLGTSASISCRSSKSLLHSNGIIYLYWYLQKPGQSPQLLIYQMSNLASGVPDRFSSSGSGTDFTLRISRVEAEDVGVYYCAQNLELPFTFGSGTKLEIKR	binds	binds

Reference: patent US20230272086A1
